According to patent publication US11807835B2, “Detergent compositions containing a stabilized enzyme by phosphonates” (ECOLAB USA INC., priority 2016, dated 2023):
Some entries share one result that the patent states for a list of compounds.

How the values were obtained:
protease = assay: Protease activity retention in detergent use solution (4000 ppm, 5 GPG water; peptidyl substrate, glycine buffer pH 9.0); type: biochemical; conditions: for protease activity retained: base formula, after use solution was generated for 4 hours; for loss of enzyme activity: 20 minutes after the use solution is generated, phosphonate not neutralized by amine
Description: (§1) The enzyme activities in the detergents with different phosphonate levels were tested at 4000 ppm in 5 grains per gallon (GPG) water at 120° F. with various time points collected up to 4 hours, after a use solution was generated from the detergent composition. During the tests, the samples at different time points were collected and immediately frozen in an acetone/dry ice bath and stored in −80° C. before the activity of the enzyme was evaluated. For the use of such an assay, t=0 min was the reference point for 100% enzyme activity.
Assays of enzyme activity in formulations (% retention) were conducted to simulate a presoak condition in a beaker using the chemistry, temperature, and pH conditions relevant to manual warewash or presoak applications. Enzyme activity is an indicator of the stability of the enzyme in the detergent, specifically in an aqueous use solution within a sump (which is under conditions of high pH, temperature and dilution).
The analysis by protease assay was conducted as follows. For the assays, a detergent composition was used to generate an aqueous use solution evaluated herein.
Enzyme activity under presoak or manual warewash conditions was traced quantitatively using a standard protease assay. Samples were prepared under bench top conditions, whereby the use solution from a detergent composition or detergent was obtained and maintained at a presoak or manual warewash temperature in a stirring water bath. After the time course for assessing enzyme stability is initiated, aliquots were taken at various time points and flash-frozen. A time=0 sample was prepared for each series by dissolving the detergent formulation at room temperature, mixing thoroughly, and flash freezing. Samples were thawed and diluted as necessary in an assay buffer usually for use in the protease assay. A glycine buffer at pH 9.0 is used here. The assay monitored the direct reaction of the protease on a small, commercially available peptidyl substrate, with liberation of the product providing correlation to the active enzyme content. The product was detected using a plate reader with an appreciable dynamic range (upper absorbance limit of the instrument >3.5). Enzyme activity levels were assessed relative to a calibration curve with average values for replicate tests used to map protease stability under presoak or manual warewash use conditions. Enzyme retention at each time point was calculated as the % enzyme activity relative to the time=0 sample.

lipase = assay: Lipase activity retention in detergent use solution (4000 ppm, 5 GPG water; p-nitrophenyl valerate, TRIS buffer pH 8.0); type: biochemical; conditions: after use solution was generated for 4 hours
Description: as §1, with “activities in the detergents with different phosphonate levels were tested at 4000 ppm in 5 grains per gallon (GPG) water at 120° F. with various time points” left out
Assays of enzyme activity in formulations (% retention) were conducted to simulate a presoak condition in a beaker using the chemistry, temperature, and pH conditions relevant to manual warewash or presoak applications. […]
Enzyme activity under presoak or manual warewash conditions was traced quantitatively using a standard protease assay. […] The assay monitored the direct reaction of the protease on a small, commercially available peptidyl substrate, with liberation of the product providing correlation to the active enzyme content. The product was detected using a plate reader with an appreciable dynamic range (upper absorbance limit of the instrument >3.5). Enzyme activity levels were assessed relative to a calibration curve with average values for replicate tests used to map protease stability under presoak or manual warewash use conditions. Enzyme retention at each time point was calculated as the % enzyme activity relative to the time=0 sample. […]

Compound	protease activity retained (protease)	lipase activity retained (lipase)	loss of enzyme activity (protease)
O=P(O)(O)CN(CP(=O)(O)O)CP(=O)(O)O [ATMP, Aminotri (methylene phosphonic acid)]	at least 50%	at least 15%	
CC(O)(P(=O)(O)O)P(=O)(O)O [HEDP, 1-hydroxy ethylidene-1,1-diphosphonic acid]			more than 70%
O=C(O)CCC(CC(=O)O)(C(=O)O)P(=O)(O)O (centres unmarked) [PBTC, Phosphonebutane tricarboxylic acid]			more than 70%
Diglycolamine phosphonate [DGAP]	at least 50%		
